# According to the supplement of paper PMC8728848:
# Some of the results follow.
# B1: Erv41-EDTA (Saccharomyces cerevisiae), Q04651 (protein)
# chain: MKFLVNVALVFMVVYISYIYAAAPEHHHHHHDYDIPTTENLYFQGAMGYIDQQYVVDSQVRDTVQINMDIYVNTKCDWLQINVRDQTMDRKLVLEELQLEEMPFFIPYDTKVNDINEIITPELDEILGEAIPAEFREKLDTRSFFDESDPNKAHLPEFNGCHVFGSIPVNRVSGELQITAKSLGYVASRKAPLEELKFNHVINEFSFGDFYPYIDNPLDNTAQFNQDEPLTTYVYYTSVVPTLFKKLGAEVDTNQYSVNDYRYLYKDVAAKGDKMPGIFFKYNFEPLSIVVSDVRL
# Columns and labels:
# Test in all cases: glycan array binding signal (z-score within array); higher = stronger binding
# Settings in all cases: glycan notation: IUPAC condensed, linker removed
# [1] = molecular target: Fuc(a1-2)Gal
# Procedure, shortened: (§1)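 The binding signal is a Z-score computed within each array and averaged over linkers. Arrays of the same protein sequence at different concentrations or buffers were also averaged together. Data originate from 3228 arrays in the Consortium for Functional Glycomics database, kept only where the protein sequence was available.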
# [2] = molecular target: Fuc(a1-2)Gal(b1-3)GalNAc
# Procedure, shortened: as §1
# [3] = molecular target: Fuc(a1-2)Gal(b1-3)GalNAc(a1-3)[Fuc(a1-2)]Gal(b1-4)Glc
# Procedure, shortened: as §1
# [4] = molecular target: Fuc(a1-2)Gal(b1-3)GalNAc(a1-3)[Fuc(a1-2)]Gal(b1-4)GlcNAc
# Procedure, shortened: as §1
# [5] = molecular target: Fuc(a1-2)Gal(b1-3)GalNAc(b1-3)Gal
# Procedure, shortened: as §1
# [6] = molecular target: Fuc(a1-2)Gal(b1-3)GalNAc(b1-3)Gal(a1-4)Gal(b1-4)Glc
# Procedure, shortened: as §1
# [7] = molecular target: Fuc(a1-2)Gal(b1-3)GalNAc(b1-4)[Neu5Ac(a2-3)]Gal(b1-4)Glc
# Procedure, shortened: as §1
# [8] = molecular target: Fuc(a1-2)Gal(b1-3)GlcNAc
# Procedure, shortened: as §1
# [9] = molecular target: Fuc(a1-2)Gal(b1-3)GlcNAc(b1-2)Man(a1-3)[Fuc(a1-2)Gal(b1-3)GlcNAc(b1-2)Man(a1-6)]Man(b1-4)GlcNAc(b1-4)GlcNAc
# Procedure, shortened: as §1
# [10] = molecular target: Fuc(a1-2)Gal(b1-3)GlcNAc(b1-2)Man(a1-3)[Fuc(a1-2)Gal(b1-3)GlcNAc(b1-2)Man(a1-6)]Man(b1-4)GlcNAc(b1-4)[Fuc(a1-6)]GlcNAc
# Procedure, shortened: as §1
# [11] = molecular target: Fuc(a1-2)Gal(b1-3)GlcNAc(b1-3)Gal(b1-4)Glc
# Procedure, shortened: as §1
# [12] = molecular target: Fuc(a1-2)Gal(b1-3)GlcNAc(b1-3)GalNAc
# Procedure, shortened: as §1
# [13] = molecular target: Fuc(a1-2)Gal(b1-3)GlcNAc(b1-3)[Fuc(a1-2)Gal(b1-3)GlcNAc(b1-6)]GalNAc
# Procedure, shortened: as §1
# [14] = molecular target: Fuc(a1-2)Gal(b1-3)GlcNAc(b1-3)[Gal(b1-4)GlcNAc(b1-6)]Gal(b1-4)Glc
# Procedure, shortened: as §1
# [15] = molecular target: Fuc(a1-2)Gal(b1-3)GlcNAc(b1-3)[Neu5Ac(a2-6)Gal(b1-4)GlcNAc(b1-6)]Gal(b1-4)Glc
# Procedure, shortened: as §1
# [16] = molecular target: Fuc(a1-2)Gal(b1-3)GlcNAc6S
# Procedure, shortened: as §1
# [17] = molecular target: Fuc(a1-2)Gal(b1-3)[Fuc(a1-4)]GlcNAc
# Procedure, shortened: as §1
# [18] = molecular target: Fuc(a1-2)Gal(b1-3)[Fuc(a1-4)]GlcNAc(b1-2)Man(a1-3)[Fuc(a1-2)Gal(b1-3)[Fuc(a1-4)]GlcNAc(b1-2)Man(a1-3)]Man(b1-4)GlcNAc(b1-4)GlcNAc
# Procedure, shortened: as §1
# [19] = molecular target: Fuc(a1-2)Gal(b1-3)[Fuc(a1-4)]GlcNAc(b1-2)Man(a1-3)[Fuc(a1-2)Gal(b1-3)[Fuc(a1-4)]GlcNAc(b1-2)Man(a1-6)]Man(b1-4)GlcNAc(b1-4)[Fuc(a1-6)]GlcNAc(b1-4)[Fuc(a1-6)]GlcNAc
# Procedure, shortened: as §1
# [20] = molecular target: Fuc(a1-2)Gal(b1-3)[Fuc(a1-4)]GlcNAc(b1-3)[Fuc(a1-3)[Gal(b1-4)]GlcNAc(b1-6)]Gal(b1-4)Glc
# Procedure, shortened: as §1
# [21] = molecular target: Fuc(a1-2)Gal(b1-3)[Fuc(a1-4)]GlcNAc(b1-3)[Gal(b1-4)GlcNAc(b1-6)]Gal(b1-4)Glc
# Procedure, shortened: as §1
# [22] = molecular target: Fuc(a1-2)Gal(b1-4)Fuc(a1-3)]GlcNAc(b1-2)Man(a1-3)[Fuc(a1-2)Gal(b1-4)[Fuc(a1-3)]GlcNAc(b1-2)Man(a1-6)]Man(b1-4)GlcNAc(b1-4)GlcNAc
# Procedure, shortened: as §1
# [23] = molecular target: Fuc(a1-2)Gal(b1-4)Glc
# Procedure, shortened: as §1
# [24] = molecular target: Fuc(a1-2)Gal(b1-4)Glc6S
# Procedure, shortened: as §1
# [25] = molecular target: Fuc(a1-2)Gal(b1-4)GlcNAc
# Procedure, shortened: as §1
# [26] = molecular target: Fuc(a1-2)Gal(b1-4)GlcNAc(b1-2)Man
# Procedure, shortened: as §1
# [27] = molecular target: Fuc(a1-2)Gal(b1-4)GlcNAc(b1-2)Man(a1-3)[Fuc(a1-2)Gal(b1-4)GlcNAc(b1-2)Man(a1-6)]Man(b1-4)GlcNAc(b1-4)GlcNAc
# Procedure, shortened: as §1
# [28] = molecular target: Fuc(a1-2)Gal(b1-4)GlcNAc(b1-2)Man(a1-3)[Fuc(a1-2)Gal(b1-4)GlcNAc(b1-2)Man(a1-6)]Man(b1-4)GlcNAc(b1-4)[Fuc(a1-6)]GlcNAc
# Procedure, shortened: as §1
# [29] = molecular target: Fuc(a1-2)Gal(b1-4)GlcNAc(b1-2)[Fuc(a1-2)Gal(b1-4)GlcNAc(b1-4)]Man(a1-3)[Fuc(a1-2)Gal(b1-4)GlcNAc(b1-2)Man(a1-6)]Man(b1-4)GlcNAc(b1-4)GlcNAc
# Procedure, shortened: as §1
# [30] = molecular target: Fuc(a1-2)Gal(b1-4)GlcNAc(b1-3)Gal(b1-4)GlcNAc
# Procedure, shortened: as §1
binder,measurement,setting,value
B1,glycan array binding signal (z-score),[1],-0.921
same,glycan array binding signal (z-score),[2],-0.47
same,glycan array binding signal (z-score),[3],-0.044
same,glycan array binding signal (z-score),[4],-0.603
same,glycan array binding signal (z-score),[5],-0.593
same,glycan array binding signal (z-score),[6],0.909
same,glycan array binding signal (z-score),[7],-0.192
same,glycan array binding signal (z-score),[8],-0.388
same,glycan array binding signal (z-score),[9],0.618
same,glycan array binding signal (z-score),[10],0.202
same,glycan array binding signal (z-score),[11],0.109
same,glycan array binding signal (z-score),[12],-0.786
same,glycan array binding signal (z-score),[13],2.18
same,glycan array binding signal (z-score),[14],-0.334
same,glycan array binding signal (z-score),[15],-1.18
same,glycan array binding signal (z-score),[16],0.584
same,glycan array binding signal (z-score),[17],0.164
same,glycan array binding signal (z-score),[18],0.012
same,glycan array binding signal (z-score),[19],0.182
same,glycan array binding signal (z-score),[20],-0.124
same,glycan array binding signal (z-score),[21],0.105
same,glycan array binding signal (z-score),[22],1.78
same,glycan array binding signal (z-score),[23],-0.955
same,glycan array binding signal (z-score),[24],0.332
same,glycan array binding signal (z-score),[25],-0.226
same,glycan array binding signal (z-score),[26],-0.288
same,glycan array binding signal (z-score),[27],0.143
same,glycan array binding signal (z-score),[28],-0.216
same,glycan array binding signal (z-score),[29],0.382
same,glycan array binding signal (z-score),[30],-0.317

# Not a retest: entries from further up.
binder,measurement,setting,value
B1,glycan array binding signal (z-score),[2],-0.47
same,glycan array binding signal (z-score),[3],-0.044
